This is one part of the list.
Columns and labels:
Assay in all cases: log2 fold change, soluble protein after heating vs DMSO (PISA); higher = thermal stabilisation; K562 cells, 10 uM, 30 min; active = over 0.2 and 3.5 SD of the protein, either way, in both replicates (recomputed)
bafetinib = compound: Cc1ccc(NC(=O)c2ccc(CN3CC[C@H](N(C)C)C3)c(C(F)(F)F)c2)cc1Nc1nccc(-c2cncnc2)n1 [bafetinib]
Summary of the method: (§1)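 Thermal stability values are relative to control samples and come from duplicates. They are expressed as log2 fold changes. For measurement, K562 cells (2×10^6 cells/mL) received 10 μM compound for 30 min, and aliquots were heated for 3 min over 48°C-58°C, pooled, and extracted at 4°C in PBS with 0.5% NP-40. Soluble protein, the supernatant after 21,000xg for 90 min, was quantified by TMTpro 16plex LC-MS/MS with equalised channel sums.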

The chains behind the UniProt entries cited, without tags or fusion partners. Where a name states a change or a piece, a line headed by the entry shows the natural chain unless it says otherwise.
UniProt Q562R1, whole entry, looked up: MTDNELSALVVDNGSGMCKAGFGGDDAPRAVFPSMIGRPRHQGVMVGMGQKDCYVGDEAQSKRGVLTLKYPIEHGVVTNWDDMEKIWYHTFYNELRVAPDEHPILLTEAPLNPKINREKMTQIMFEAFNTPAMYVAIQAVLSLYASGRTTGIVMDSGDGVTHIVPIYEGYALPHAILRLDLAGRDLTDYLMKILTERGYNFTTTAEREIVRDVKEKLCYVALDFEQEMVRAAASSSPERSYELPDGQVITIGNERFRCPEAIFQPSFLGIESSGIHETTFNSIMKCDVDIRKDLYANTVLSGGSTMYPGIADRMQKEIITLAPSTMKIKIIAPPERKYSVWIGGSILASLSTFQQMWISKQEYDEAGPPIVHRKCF
UniProt O95573: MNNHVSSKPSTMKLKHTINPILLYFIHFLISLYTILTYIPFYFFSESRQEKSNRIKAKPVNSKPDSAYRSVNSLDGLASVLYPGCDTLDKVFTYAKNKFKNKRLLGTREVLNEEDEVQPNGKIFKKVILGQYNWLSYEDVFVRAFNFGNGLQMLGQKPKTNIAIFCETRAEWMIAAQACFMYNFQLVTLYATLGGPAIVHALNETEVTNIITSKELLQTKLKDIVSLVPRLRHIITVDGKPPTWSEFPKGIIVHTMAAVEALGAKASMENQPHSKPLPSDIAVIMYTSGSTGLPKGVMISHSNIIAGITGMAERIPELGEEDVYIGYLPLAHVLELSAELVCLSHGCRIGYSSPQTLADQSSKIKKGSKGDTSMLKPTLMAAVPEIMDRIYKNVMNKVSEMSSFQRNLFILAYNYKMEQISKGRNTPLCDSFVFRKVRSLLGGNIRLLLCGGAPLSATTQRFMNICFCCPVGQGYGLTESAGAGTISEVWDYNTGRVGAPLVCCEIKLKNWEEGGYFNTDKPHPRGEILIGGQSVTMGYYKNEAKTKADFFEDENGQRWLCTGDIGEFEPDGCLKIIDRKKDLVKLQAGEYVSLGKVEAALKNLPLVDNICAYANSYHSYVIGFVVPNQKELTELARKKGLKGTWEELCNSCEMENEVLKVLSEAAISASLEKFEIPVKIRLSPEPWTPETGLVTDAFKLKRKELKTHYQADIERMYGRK
UniProt P53396: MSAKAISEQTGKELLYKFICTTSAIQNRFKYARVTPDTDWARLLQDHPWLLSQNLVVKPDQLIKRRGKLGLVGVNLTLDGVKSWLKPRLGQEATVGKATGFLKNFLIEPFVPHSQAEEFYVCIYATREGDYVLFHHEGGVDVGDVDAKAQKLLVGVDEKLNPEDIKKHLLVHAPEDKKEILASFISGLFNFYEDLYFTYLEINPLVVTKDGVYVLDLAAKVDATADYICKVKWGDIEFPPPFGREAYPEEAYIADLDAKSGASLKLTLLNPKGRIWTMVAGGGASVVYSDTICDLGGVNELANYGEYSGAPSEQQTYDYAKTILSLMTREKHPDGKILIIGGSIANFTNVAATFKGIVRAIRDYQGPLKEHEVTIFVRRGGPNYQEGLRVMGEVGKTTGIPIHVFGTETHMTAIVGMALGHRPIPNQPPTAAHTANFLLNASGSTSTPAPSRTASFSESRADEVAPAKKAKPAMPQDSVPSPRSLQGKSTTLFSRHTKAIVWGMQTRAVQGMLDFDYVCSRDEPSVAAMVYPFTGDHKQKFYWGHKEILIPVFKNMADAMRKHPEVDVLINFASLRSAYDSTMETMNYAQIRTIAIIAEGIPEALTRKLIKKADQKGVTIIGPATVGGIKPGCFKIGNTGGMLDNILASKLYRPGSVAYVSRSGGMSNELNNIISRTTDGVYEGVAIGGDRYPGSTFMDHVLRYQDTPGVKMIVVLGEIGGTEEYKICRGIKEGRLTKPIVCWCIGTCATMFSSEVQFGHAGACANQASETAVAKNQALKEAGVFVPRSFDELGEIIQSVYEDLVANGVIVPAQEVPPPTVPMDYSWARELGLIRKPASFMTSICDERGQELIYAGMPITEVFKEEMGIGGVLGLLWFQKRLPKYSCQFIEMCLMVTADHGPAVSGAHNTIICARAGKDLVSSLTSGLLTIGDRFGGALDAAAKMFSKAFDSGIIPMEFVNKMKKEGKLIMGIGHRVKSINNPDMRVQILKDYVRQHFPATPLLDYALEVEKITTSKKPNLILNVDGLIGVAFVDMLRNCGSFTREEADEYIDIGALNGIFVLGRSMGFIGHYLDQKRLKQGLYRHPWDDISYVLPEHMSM
UniProt Q4G176: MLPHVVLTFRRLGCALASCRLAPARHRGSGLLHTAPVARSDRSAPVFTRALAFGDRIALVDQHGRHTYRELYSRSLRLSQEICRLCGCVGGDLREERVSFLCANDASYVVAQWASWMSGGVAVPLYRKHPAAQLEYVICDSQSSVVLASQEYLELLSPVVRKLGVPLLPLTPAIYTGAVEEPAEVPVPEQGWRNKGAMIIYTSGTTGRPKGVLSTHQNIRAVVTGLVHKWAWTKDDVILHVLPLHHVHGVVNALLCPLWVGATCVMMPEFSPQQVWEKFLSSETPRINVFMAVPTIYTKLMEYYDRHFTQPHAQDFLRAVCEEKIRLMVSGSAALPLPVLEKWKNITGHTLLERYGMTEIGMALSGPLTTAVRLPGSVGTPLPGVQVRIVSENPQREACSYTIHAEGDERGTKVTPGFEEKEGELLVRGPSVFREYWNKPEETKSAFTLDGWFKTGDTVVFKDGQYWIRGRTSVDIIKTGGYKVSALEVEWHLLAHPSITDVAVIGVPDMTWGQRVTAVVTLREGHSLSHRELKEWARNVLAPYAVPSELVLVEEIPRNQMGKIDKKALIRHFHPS
UniProt P24666: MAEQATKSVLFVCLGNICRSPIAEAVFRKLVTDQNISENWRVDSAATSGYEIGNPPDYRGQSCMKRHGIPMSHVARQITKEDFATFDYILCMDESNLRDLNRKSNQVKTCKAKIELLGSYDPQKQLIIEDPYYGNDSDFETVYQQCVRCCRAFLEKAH
UniProt Q96QU6: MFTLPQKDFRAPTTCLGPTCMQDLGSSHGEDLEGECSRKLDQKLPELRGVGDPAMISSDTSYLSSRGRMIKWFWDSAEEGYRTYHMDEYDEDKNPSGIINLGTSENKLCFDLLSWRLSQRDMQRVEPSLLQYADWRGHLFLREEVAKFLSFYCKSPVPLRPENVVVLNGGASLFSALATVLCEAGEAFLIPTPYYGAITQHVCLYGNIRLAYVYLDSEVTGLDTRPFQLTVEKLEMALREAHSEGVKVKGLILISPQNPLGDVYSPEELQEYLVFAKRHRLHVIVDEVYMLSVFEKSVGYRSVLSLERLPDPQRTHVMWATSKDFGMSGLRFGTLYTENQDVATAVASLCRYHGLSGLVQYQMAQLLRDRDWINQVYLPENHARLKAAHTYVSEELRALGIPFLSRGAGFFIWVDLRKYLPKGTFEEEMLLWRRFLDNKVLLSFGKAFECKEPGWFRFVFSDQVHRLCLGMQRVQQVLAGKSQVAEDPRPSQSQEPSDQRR
UniProt Q8TDG2: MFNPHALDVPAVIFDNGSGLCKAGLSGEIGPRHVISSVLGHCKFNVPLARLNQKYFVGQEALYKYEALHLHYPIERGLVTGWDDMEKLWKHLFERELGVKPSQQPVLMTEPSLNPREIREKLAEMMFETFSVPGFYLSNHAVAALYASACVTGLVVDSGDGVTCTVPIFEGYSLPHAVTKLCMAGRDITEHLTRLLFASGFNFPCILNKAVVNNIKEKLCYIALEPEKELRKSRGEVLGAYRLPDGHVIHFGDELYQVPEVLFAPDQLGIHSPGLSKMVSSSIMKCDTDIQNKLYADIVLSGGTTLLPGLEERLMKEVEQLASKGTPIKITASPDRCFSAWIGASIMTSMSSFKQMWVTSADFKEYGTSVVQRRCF
UniProt Q6DHV7: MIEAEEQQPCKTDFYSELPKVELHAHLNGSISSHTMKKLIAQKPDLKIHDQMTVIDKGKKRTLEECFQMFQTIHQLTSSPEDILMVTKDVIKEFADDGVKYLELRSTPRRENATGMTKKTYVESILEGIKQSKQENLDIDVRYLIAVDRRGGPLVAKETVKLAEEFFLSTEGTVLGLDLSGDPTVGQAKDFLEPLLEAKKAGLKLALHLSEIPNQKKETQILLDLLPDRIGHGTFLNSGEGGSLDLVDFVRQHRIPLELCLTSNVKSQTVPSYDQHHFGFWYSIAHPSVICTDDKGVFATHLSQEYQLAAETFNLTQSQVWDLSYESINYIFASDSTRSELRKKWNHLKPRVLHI

[1] = compound: Cc1cccc(CC(=O)N2CCc3c2ccc(-c2cn(C)c4ncnc(N)c24)c3F)n1
Summary of the method: as §1

nilotinib = compound: Cc1cn(-c2cc(NC(=O)c3ccc(C)c(Nc4nccc(-c5cccnc5)n4)c3)cc(C(F)(F)F)c2)cn1 [nilotinib]
Summary of the method: as §1

[2] = compound: Cc1nc(Nc2n[nH]c3c2CN(C(=O)N[C@H](CN(C)C)c2ccccc2)C3(C)C)c2sccc2n1
Summary of the method: as §1

dasatinib = compound: Cc1nc(Nc2ncc(C(=O)Nc3c(C)cccc3Cl)s2)cc(N2CCN(CCO)CC2)n1 [dasatinib]
Summary of the method: as §1

[3] = compound: Cc1ncc(-c2ccnc(Nc3ccc(S(C)(=O)=O)cc3)n2)n1C(C)C
Summary of the method: as §1

[4] = compound: Cn1cc(-c2ccc3nnc(C(F)(F)c4ccc5ncccc5c4)n3n2)cn1
Summary of the method: as §1

tipifarnib = compound: Cn1cncc1[C@@](N)(c1ccc(Cl)cc1)c1ccc2c(c1)c(-c1cccc(Cl)c1)cc(=O)n2C [tipifarnib]
Summary of the method: as §1

mubritinib = compound: FC(F)(F)c1ccc(/C=C/c2nc(COc3ccc(CCCCn4ccnn4)cc3)co2)cc1 [mubritinib]
Summary of the method: as §1

[5] = compound: NC(=O)Nc1cc(-c2cccc(F)c2)sc1C(=O)N[C@H]1CCCNC1
Summary of the method: as §1

[6] = compound: NC(=O)c1cnc(N[C@@H]2CCCC[C@@H]2N)nc1Nc1cccc(-n2nccn2)c1
Summary of the method: as §1

[7] = compound: NC1(c2ccc(-c3nc4ccn5c(=O)[nH]nc5c4cc3-c3ccccc3)cc2)CCC1
Summary of the method: as §1

[8] = compound: NCC(=O)Nc1ccc(-n2nc(C(F)(F)F)cc2-c2ccc3c(ccc4ccccc43)c2)cc1
Summary of the method: as §1

entinostat = compound: Nc1ccccc1NC(=O)c1ccc(CNC(=O)OCc2cccnc2)cc1 [entinostat]
Summary of the method: as §1

vorinostat = compound: O=C(CCCCCCC(=O)Nc1ccccc1)NO [vorinostat]
Summary of the method: as §1

citarinostat = compound: O=C(CCCCCCNC(=O)c1cnc(N(c2ccccc2)c2ccccc2Cl)nc1)NO [citarinostat]
Summary of the method: as §1

silmitasertib = compound: O=C(O)c1ccc2c(c1)nc(Nc1cccc(Cl)c1)c1ccncc12 [silmitasertib]
Summary of the method: as §1

[9] = compound: O=C1NC(=O)C(c2cnc3ccccn23)=C1c1cn2c3c(cc(F)cc13)CN(C(=O)N1CCCCC1)CC2
Summary of the method: as §1

[10] = compound: c1cc(OCCN2CCCCC2)cc(-c2n[nH]c3ccc(-c4nnc[nH]4)cc23)c1
Summary of the method: as §1

[11] = compound: Cn1cc(-c2ccc3c(c2)CCN3C(=O)Cc2cccc(C(F)(F)F)c2)c2c(N)ncnc21
Summary of the method: as §1

Target	log2 fold change (bafetinib)	log2 fold change [1]	log2 fold change (nilotinib)	log2 fold change [2]	log2 fold change (dasatinib)	log2 fold change [3]	log2 fold change [4]	log2 fold change (tipifarnib)	log2 fold change (mubritinib)	log2 fold change [5]	log2 fold change [6]	log2 fold change [7]	log2 fold change [8]	log2 fold change (entinostat)	log2 fold change (vorinostat)	log2 fold change (citarinostat)	log2 fold change (silmitasertib)	log2 fold change [9]	log2 fold change [10]	log2 fold change [11]
ACTBL2 (UniProt Q562R1)	inactive: 0.113	inactive: -0.124	inactive: 0.579	inactive: -0.067	inactive: 0.398	inactive: -0.051	inactive: 0.336	inactive: 0.488	inactive: -0.267	inactive: -0.205	inactive: 0.038	active: 1.54	inactive: 0.239	inactive: 0.103	inactive: 0.024	inactive: -0.585	inactive: -0.129	inactive: -0.051	inactive: -0.1	–
ACSL3 (UniProt O95573)	inactive: -0.066	inactive: 0.042	inactive: -0.086	inactive: -0.048	inactive: -0.06	inactive: 0.011	inactive: 0.075	inactive: -0.042	inactive: 0	inactive: 0.009	inactive: -0.041	inactive: -0.095	inactive: -0.042	inactive: 0.047	inactive: 0.049	inactive: 0.047	inactive: 0.074	inactive: -0.045	inactive: 0.028	inactive: 0.029
ACLY (UniProt P53396)	inactive: -0.052	inactive: -0.038	inactive: -0.068	inactive: 0.002	inactive: -0.037	inactive: 0.013	inactive: 0.023	inactive: 0.016	inactive: -0.177	inactive: -0.016	inactive: -0.014	inactive: -0.06	inactive: -0.008	inactive: 0	inactive: -0.001	inactive: 0.03	inactive: 0.01	inactive: -0.023	inactive: -0.044	inactive: -0.003
ACSF3 (UniProt Q4G176)	inactive: -0.13	inactive: -0.105	inactive: 0.084	inactive: 0.135	inactive: -0.073	inactive: 0.022	inactive: -0.02	inactive: 0.062	active: -0.433	inactive: -0.016	inactive: -0.073	inactive: -0.098	inactive: -0.184	inactive: 0.069	inactive: 0.007	inactive: 0.197	inactive: 0.109	inactive: 0.035	inactive: -0.107	inactive: -0.278
ACP1 (UniProt P24666)	inactive: 0.041	inactive: 0.013	inactive: 0.078	inactive: -0.071	inactive: -0.129	inactive: -0.01	–	inactive: 0.037	inactive: 0.035	inactive: -0.079	inactive: -0.24	inactive: -0.002	inactive: -0.199	inactive: 0.093	inactive: 0.01	inactive: 0.012	inactive: 0.088	inactive: -0.074	inactive: -0.014	inactive: 0.037
ACCS (UniProt Q96QU6)	inactive: 0.022	inactive: -0.143	inactive: -0.005	inactive: 0.015	–	inactive: -0.036	inactive: 0.029	–	inactive: 0	–	–	inactive: 0.008	–	–	inactive: 0.009	inactive: 0.049	inactive: -0.047	inactive: 0.048	inactive: 0.06	inactive: 0.15
ACTRT1 (UniProt Q8TDG2)	inactive: -0.225	inactive: -0.282	–	–	inactive: 0.139	–	–	inactive: 0.164	–	–	inactive: -0.188	–	inactive: -0.176	–	inactive: -0.116	–	–	inactive: -0.13	–	–
ACTN4 (UniProt K7EJH8)	inactive: -0.036	inactive: -0.029	–	–	inactive: 0.045	–	inactive: -0.027	inactive: 0.03	inactive: -0.041	inactive: 0.008	inactive: -0.094	inactive: 0.007	–	inactive: 0.027	inactive: -0.033	inactive: 0.017	inactive: -0.118	inactive: 0.031	inactive: -0.049	inactive: -0.004
ADAL (UniProt Q6DHV7)	inactive: -0.016	inactive: -0.012	inactive: 0.005	inactive: 0.017	inactive: 0.007	inactive: -0.015	inactive: 0.109	inactive: -0.008	inactive: 0.052	inactive: 0.076	inactive: 0	inactive: -0.011	inactive: 0.007	inactive: 0.011	inactive: -0.045	inactive: 0.055	inactive: -0.034	inactive: -0.037	inactive: 0	inactive: 0.056

Reformatted comma-delimited: part of the list above.
Target,log2 fold change (bafetinib),log2 fold change [1],log2 fold change (nilotinib),log2 fold change [2],log2 fold change (dasatinib),log2 fold change [3],log2 fold change [4],log2 fold change (tipifarnib),log2 fold change (mubritinib),log2 fold change [5],log2 fold change [6],log2 fold change [7],log2 fold change [8],log2 fold change (entinostat),log2 fold change (vorinostat),log2 fold change (citarinostat),log2 fold change (silmitasertib),log2 fold change [9],log2 fold change [10],log2 fold change [11]
ACSL3 (UniProt O95573),inactive: -0.066,inactive: 0.042,inactive: -0.086,inactive: -0.048,inactive: -0.06,inactive: 0.011,inactive: 0.075,inactive: -0.042,inactive: 0,inactive: 0.009,inactive: -0.041,inactive: -0.095,inactive: -0.042,inactive: 0.047,inactive: 0.049,inactive: 0.047,inactive: 0.074,inactive: -0.045,inactive: 0.028,inactive: 0.029
ACTRT1 (UniProt Q8TDG2),inactive: -0.225,inactive: -0.282,–,–,inactive: 0.139,–,–,inactive: 0.164,–,–,inactive: -0.188,–,inactive: -0.176,–,inactive: -0.116,–,–,inactive: -0.13,–,–

— the supplement of paper PMC10849652
